Data as given in the supplement of paper PMC10849652.
The other results are listed elsewhere or left out.

Protein sequences, listed by entry. Tags and fused reporters are not part of them. Lines headed by an entry give the natural chain unless they say otherwise; changes in a name come on top.
UniProt O95822: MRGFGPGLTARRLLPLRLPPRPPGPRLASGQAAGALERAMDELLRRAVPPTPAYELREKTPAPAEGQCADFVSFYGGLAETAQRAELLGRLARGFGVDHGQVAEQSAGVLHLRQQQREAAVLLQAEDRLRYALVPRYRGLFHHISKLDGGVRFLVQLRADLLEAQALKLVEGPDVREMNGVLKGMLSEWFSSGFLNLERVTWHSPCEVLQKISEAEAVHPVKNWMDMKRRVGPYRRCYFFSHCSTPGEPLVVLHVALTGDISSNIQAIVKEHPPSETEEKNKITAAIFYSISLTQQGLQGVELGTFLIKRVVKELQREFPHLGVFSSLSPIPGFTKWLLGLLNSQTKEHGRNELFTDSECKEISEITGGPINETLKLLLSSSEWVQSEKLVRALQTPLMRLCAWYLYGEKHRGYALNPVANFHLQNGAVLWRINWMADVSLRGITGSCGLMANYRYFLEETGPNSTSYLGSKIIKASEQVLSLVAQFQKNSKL
UniProt Q8NHP6: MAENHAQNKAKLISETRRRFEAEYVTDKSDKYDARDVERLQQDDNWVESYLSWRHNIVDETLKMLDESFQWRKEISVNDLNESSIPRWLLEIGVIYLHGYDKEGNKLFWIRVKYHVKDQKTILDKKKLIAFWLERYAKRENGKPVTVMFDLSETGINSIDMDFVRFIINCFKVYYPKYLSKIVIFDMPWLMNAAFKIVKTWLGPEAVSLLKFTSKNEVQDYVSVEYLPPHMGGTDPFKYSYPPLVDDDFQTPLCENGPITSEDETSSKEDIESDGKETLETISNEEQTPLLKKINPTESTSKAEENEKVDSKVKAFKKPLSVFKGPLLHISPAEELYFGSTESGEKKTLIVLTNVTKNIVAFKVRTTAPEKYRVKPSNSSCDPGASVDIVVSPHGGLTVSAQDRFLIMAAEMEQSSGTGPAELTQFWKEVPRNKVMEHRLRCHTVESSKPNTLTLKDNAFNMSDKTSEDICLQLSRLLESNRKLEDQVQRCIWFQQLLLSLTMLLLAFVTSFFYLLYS
UniProt Q9NV56, whole entry, looked up: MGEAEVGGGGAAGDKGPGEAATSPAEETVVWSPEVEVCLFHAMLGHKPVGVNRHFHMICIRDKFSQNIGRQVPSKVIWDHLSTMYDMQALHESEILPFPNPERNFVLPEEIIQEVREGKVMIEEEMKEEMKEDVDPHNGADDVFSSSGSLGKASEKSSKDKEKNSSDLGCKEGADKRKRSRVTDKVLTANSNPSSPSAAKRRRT
UniProt Q14165: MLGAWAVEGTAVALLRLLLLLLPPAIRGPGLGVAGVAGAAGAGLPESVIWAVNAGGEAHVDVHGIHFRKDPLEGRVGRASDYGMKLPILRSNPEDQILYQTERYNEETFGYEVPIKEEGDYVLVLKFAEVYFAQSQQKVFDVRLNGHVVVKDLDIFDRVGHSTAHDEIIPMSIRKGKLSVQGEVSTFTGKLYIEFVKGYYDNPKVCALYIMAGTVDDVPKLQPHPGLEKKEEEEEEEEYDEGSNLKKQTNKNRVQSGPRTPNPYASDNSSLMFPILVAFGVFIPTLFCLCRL
UniProt Q9UL63, whole entry, looked up: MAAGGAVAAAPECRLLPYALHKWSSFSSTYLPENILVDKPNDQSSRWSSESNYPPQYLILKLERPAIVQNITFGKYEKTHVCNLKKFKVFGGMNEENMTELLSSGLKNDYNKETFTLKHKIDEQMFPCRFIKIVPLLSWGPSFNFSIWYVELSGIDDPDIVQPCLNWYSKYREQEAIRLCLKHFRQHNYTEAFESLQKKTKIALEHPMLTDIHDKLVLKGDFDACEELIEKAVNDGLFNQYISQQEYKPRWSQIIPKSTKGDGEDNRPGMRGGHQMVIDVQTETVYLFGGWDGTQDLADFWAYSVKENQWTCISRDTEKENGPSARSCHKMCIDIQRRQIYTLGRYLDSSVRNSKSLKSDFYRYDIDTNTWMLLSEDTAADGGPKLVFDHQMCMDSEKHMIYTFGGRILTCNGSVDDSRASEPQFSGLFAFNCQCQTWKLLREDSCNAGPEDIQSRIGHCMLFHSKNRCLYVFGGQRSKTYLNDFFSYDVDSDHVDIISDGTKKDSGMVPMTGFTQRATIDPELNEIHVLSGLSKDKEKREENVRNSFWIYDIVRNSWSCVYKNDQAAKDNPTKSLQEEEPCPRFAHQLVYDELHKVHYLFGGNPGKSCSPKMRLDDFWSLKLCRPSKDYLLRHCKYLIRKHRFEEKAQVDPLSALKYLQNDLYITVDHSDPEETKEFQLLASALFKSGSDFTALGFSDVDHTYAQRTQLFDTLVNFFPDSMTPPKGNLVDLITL
UniProt Q567V2: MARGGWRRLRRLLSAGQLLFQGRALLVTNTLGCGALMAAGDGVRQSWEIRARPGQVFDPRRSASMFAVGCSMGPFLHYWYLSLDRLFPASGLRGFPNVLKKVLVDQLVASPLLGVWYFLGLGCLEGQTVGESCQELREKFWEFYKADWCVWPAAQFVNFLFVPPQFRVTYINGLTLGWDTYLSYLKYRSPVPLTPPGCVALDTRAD
UniProt Q5XKP0: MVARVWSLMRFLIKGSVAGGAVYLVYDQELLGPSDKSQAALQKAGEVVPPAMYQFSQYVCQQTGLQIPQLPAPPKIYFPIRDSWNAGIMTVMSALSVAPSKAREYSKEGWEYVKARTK
UniProt P51948: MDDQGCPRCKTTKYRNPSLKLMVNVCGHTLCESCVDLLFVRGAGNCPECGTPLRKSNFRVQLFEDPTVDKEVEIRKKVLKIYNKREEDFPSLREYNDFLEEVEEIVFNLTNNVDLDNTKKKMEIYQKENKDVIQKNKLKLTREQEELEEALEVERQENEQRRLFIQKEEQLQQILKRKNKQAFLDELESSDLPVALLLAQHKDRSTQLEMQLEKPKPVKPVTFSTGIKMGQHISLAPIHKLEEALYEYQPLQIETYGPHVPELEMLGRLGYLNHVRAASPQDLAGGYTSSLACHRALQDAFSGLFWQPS

Tests used:
Test in all cases: log2 fold change, soluble protein after heating vs DMSO (PISA); higher = thermal stabilisation; K562 cells, 10 uM, 30 min; active = over 0.2 and 3.5 SD of the protein, either way, in both replicates (recomputed)
[1] = compound: CC[C@@H]1C(=O)N(C)c2cnc(Nc3ccc(C(=O)NC4CCN(C)CC4)cc3OC)nc2N1C1CCCC1
How it was run: (§1)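 K562 cells (2×10^6 cells/mL) were treated with 10 μM compound for 30 min, and aliquots were heated for 3 min over 48°C-58°C. Pooled aliquots were extracted in PBS with 0.5% NP-40 at 4°C, and the supernatant after 21,000xg for 90 min was measured by TMTpro 16plex LC-MS/MS with channel sums equalised. Reported thermal stability, relative to control samples and from duplicates, is a log2 fold change.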

volasertib = compound: CC[C@@H]1C(=O)N(C)c2cnc(Nc3ccc(C(=O)N[C@H]4CC[C@H](N5CCN(CC6CC6)CC5)CC4)cc3OC)nc2N1C(C)C [volasertib]
How it was run: as §1

[2] = compound: CC[C@H](C)N1C=C(C2=C(C=C(C=C21)C3=CN=C(C=C3)N4CCNCC4)C(=O)NCC5=C(C=C(NC5=O)C)C)C
How it was run: as §1

epoxomicin = compound: CC[C@H](C)[C@@H](C(=O)N[C@@H]([C@@H](C)O)C(=O)N[C@@H](CC(C)C)C(=O)[C@]1(CO1)C)NC(=O)[C@H]([C@@H](C)CC)N(C)C(=O)C [epoxomicin]
How it was run: as §1

[3] = compound: CCn1c(C(=O)N(C2CC2)C2CC2)cc2c3c(ncn3C)c(Nc3cc(C)n(C)n3)nc21
How it was run: as §1

[4] = compound: CCn1cc(-c2ccnc3[nH]c(-c4cccc(CN(C)C)c4)cc23)c(-c2ccc(NC(=O)N(C)C)cc2)n1
How it was run: as §1

[5] = compound: CN(C)CC(=O)Nc1ccc2[nH]c(=O)c3ccccc3c2c1
How it was run: as §1

rosiglitazone = compound: CN(CCOC1=CC=C(C=C1)C[C@H]2C(=O)NC(=O)S2)C3=CC=CC=N3 (racemic) [rosiglitazone]
How it was run: as §1

[6] = compound: CN1C2=C(C3=C1C(=O)N(N=C3)CC4=CC(=CC=C4)N)SC(=C2)S(=O)C
How it was run: as §1

[7] = compound: CN1CCC(CNc2ccc3ncc(-c4cccc(OC(F)(F)F)c4)n3n2)CC1
How it was run: as §1

saracatinib = compound: CN1CCN(CCOc2cc(OC3CCOCC3)c3c(Nc4c(Cl)ccc5c4OCO5)ncnc3c2)CC1 [saracatinib]
How it was run: as §1

sotrastaurin = compound: CN1CCN(c2nc(C3=C(c4c[nH]c5ccccc45)C(=O)NC3=O)c3ccccc3n2)CC1 [sotrastaurin]
How it was run: as §1

alvocidib = compound: CN1CC[C@H](c2c(O)cc(O)c3c(=O)cc(-c4ccccc4Cl)oc23)[C@H](O)C1 [alvocidib]
How it was run: as §1

Tubastatin A = compound: CN1CCc2c(c3ccccc3n2Cc2ccc(C(=O)NO)cc2)C1 [Tubastatin A]
How it was run: as §1

[8] = compound: CNC(=O)C1=CC=CC=C1NC2=NC(=NC=C2Cl)NC3=C(C=C(C=C3)N4CCOCC4)OC
How it was run: as §1

defactinib = compound: CNC(=O)c1ccc(Nc2ncc(C(F)(F)F)c(NCc3nccnc3N(C)S(C)(=O)=O)n2)cc1 [defactinib]
How it was run: as §1

rucaparib = compound: CNCc1ccc(-c2[nH]c3cc(F)cc4c3c2CCNC4=O)cc1 [rucaparib]
How it was run: as §1

[9] = compound: CNc1nc(-c2ccc3c(N)n[nH]c3c2)cc(N2C[C@@H](C(=O)NC3CCCCC3)CC[C@H]2C)n1
How it was run: as §1

encorafenib = compound: COC(=O)N[C@@H](C)CNc1nccc(-c2cn(C(C)C)nc2-c2cc(Cl)cc(NS(C)(=O)=O)c2F)n1 [encorafenib]
How it was run: as §1

[10] = compound: COC(=O)[C@H](CCSC)NC(=O)C1=C(C=C(C=C1)NC[C@H](CS)N)C2=CC=CC=C2
How it was run: as §1

Measured: log2 fold change

MRPL54 (UniProt Q6P161)
inactive: [1] 0.044 | volasertib 0.101 | [2] -0.036 | epoxomicin -0.03 | [3] 0.025 | [4] 0.155 | [5] -0.146 | rosiglitazone -0.075 | [6] 0.139 | [7] -0.043 | saracatinib 0.033 | sotrastaurin 0.07 | alvocidib 0.105 | Tubastatin A -0.112 | [8] -0.032 | defactinib 0.16 | rucaparib 0.138 | [9] -0.089 | encorafenib -0.131 | [10] 0.12

MLYCD (UniProt O95822)
inactive: [1] 0.051 | volasertib 0.037 | [2] 0.05 | epoxomicin -0.031 | [3] 0.022 | [4] 0.025 | [5] -0.055 | rosiglitazone -0.023 | [6] 0.04 | [7] -0.067 | saracatinib 0.056 | sotrastaurin -0.006 | alvocidib -0.058 | Tubastatin A -0.008 | [8] 0 | defactinib -0.021 | rucaparib -0.065 | [9] -0.011 | encorafenib -0.003 | [10] 0.022

MOSPD2 (UniProt Q8NHP6)
inactive: [1] 0.204 | volasertib 0.003 | [2] -0.053 | epoxomicin -0.032 | [3] 0.003 | [4] -0.058 | [5] -0.054 | rosiglitazone 0.027 | [6] 0.009 | [7] 0 | saracatinib -0.07 | sotrastaurin -0.061 | alvocidib -0.028 | Tubastatin A 0.019 | [8] 0 | defactinib -0.039 | rucaparib -0.047 | [9] -0.01 | encorafenib -0.036 | [10] -0.007

MRGBP (UniProt Q9NV56)
inactive: [1] -0.014 | volasertib -0.101 | [2] 0.121 | epoxomicin 0.048 | [3] 0.026 | [4] 0.054 | [5] -0.046 | rosiglitazone 0.009 | [6] -0.03 | [7] 0.209 | saracatinib 0.012 | sotrastaurin -0.087 | alvocidib -0.064 | Tubastatin A -0.056 | [8] 0.03 | defactinib -0.045 | rucaparib -0.013 | [9] 0.006 | encorafenib 0.015 | [10] 0.074

MRPL51 (UniProt Q4U2R6)
inactive: [1] 0.102 | volasertib 0.217 | [2] -0.059 | epoxomicin -0.044 | [3] -0.078 | [4] 0.04 | [5] -0.017 | rosiglitazone -0.046 | [6] 0.13 | [7] -0.024 | saracatinib -0.212 | sotrastaurin 0.015 | alvocidib 0.078 | Tubastatin A 0.033 | [8] -0.06 | defactinib 0.184 | rucaparib 0.207 | [9] 0.106 | encorafenib 0.161 | [10] -0.024

MRPL19 (UniProt P49406)
inactive: [1] 0.06 | volasertib 0.107 | [2] 0.005 | epoxomicin 0.011 | [3] 0.004 | [4] -0.061 | [5] -0.046 | rosiglitazone 0.011 | [6] 0.03 | [7] 0.11 | saracatinib -0.174 | sotrastaurin -0.119 | alvocidib 0.049 | Tubastatin A 0.048 | [8] -0.066 | defactinib 0.174 | rucaparib 0.119 | [9] 0.153 | encorafenib 0.139 | [10] -0.056

MRPL43 isoform 4 (UniProt Q8N983)
inactive: [1] 0.096 | volasertib 0.186 | [2] -0.051 | epoxomicin -0.061 | [3] 0.015 | [4] 0.108 | [5] -0.013 | rosiglitazone -0.036 | [6] 0.174 | [7] 0.108 | saracatinib -0.136 | sotrastaurin 0.043 | alvocidib 0.088 | Tubastatin A 0.122 | [8] -0.004 | defactinib 0.18 | rucaparib 0.084 | [9] 0.108 | encorafenib 0.108 | [10] -0.057

MLEC (UniProt Q14165)
inactive: [1] -0.011 | volasertib -0.065 | [2] 0.024 | epoxomicin -0.014 | [3] 0.051 | [4] 0.003 | [5] -0.015 | rosiglitazone 0.005 | [6] -0.014 | [7] 0.05 | saracatinib -0.048 | sotrastaurin -0.016 | alvocidib 0.015 | Tubastatin A 0.004 | [8] -0.004 | defactinib 0.011 | rucaparib 0.002 | [9] 0.009 | encorafenib 0.032 | [10] -0.028

MRPL35 (UniProt Q9NZE8)
inactive: [1] 0.06 | volasertib 0.143 | [2] -0.031 | epoxomicin -0.109 | [3] -0.039 | [4] 0.123 | [5] -0.044 | rosiglitazone -0.1 | [6] 0.113 | [7] 0.111 | saracatinib -0.227 | sotrastaurin -0.076 | alvocidib 0.061 | Tubastatin A 0.033 | [8] 0.001 | defactinib 0.049 | rucaparib 0.104 | [9] 0.071 | encorafenib 0.153 | [10] -0.054

3 neighbouring entries from above, for reference:
MRPL51 (UniProt Q4U2R6)
inactive: [1] 0.102 | volasertib 0.217 | [2] -0.059 | epoxomicin -0.044 | [3] -0.078 | [4] 0.04 | [5] -0.017 | rosiglitazone -0.046 | [6] 0.13 | [7] -0.024 | saracatinib -0.212 | sotrastaurin 0.015 | alvocidib 0.078 | Tubastatin A 0.033 | [8] -0.06 | defactinib 0.184 | rucaparib 0.207 | [9] 0.106 | encorafenib 0.161 | [10] -0.024

MRPL19 (UniProt P49406)
inactive: [1] 0.06 | volasertib 0.107 | [2] 0.005 | epoxomicin 0.011 | [3] 0.004 | [4] -0.061 | [5] -0.046 | rosiglitazone 0.011 | [6] 0.03 | [7] 0.11 | saracatinib -0.174 | sotrastaurin -0.119 | alvocidib 0.049 | Tubastatin A 0.048 | [8] -0.066 | defactinib 0.174 | rucaparib 0.119 | [9] 0.153 | encorafenib 0.139 | [10] -0.056

MRPL43 isoform 4 (UniProt Q8N983)
inactive: [1] 0.096 | volasertib 0.186 | [2] -0.051 | epoxomicin -0.061 | [3] 0.015 | [4] 0.108 | [5] -0.013 | rosiglitazone -0.036 | [6] 0.174 | [7] 0.108 | saracatinib -0.136 | sotrastaurin 0.043 | alvocidib 0.088 | Tubastatin A 0.122 | [8] -0.004 | defactinib 0.18 | rucaparib 0.084 | [9] 0.108 | encorafenib 0.108 | [10] -0.057

The list continues.

MRPL18 (UniProt Q9H0U6)
inactive: [1] 0.03 | volasertib 0.046 | [2] 0.081 | epoxomicin 0.025 | [3] 0 | [4] 0 | [5] 0.063 | rosiglitazone -0.061 | [6] 0.065 | [7] 0.147 | saracatinib -0.093 | sotrastaurin -0.058 | alvocidib -0.14 | Tubastatin A 0.105 | [8] 0.078 | defactinib 0.125 | rucaparib 0.166 | [9] 0.048 | encorafenib 0.051 | [10] -0.2

MKLN1 (UniProt Q9UL63)
inactive: [1] 0.009 | volasertib -0.089 | [2] 0.024 | epoxomicin 0.021 | [3] -0.003 | [4] 0.005 | [5] -0.025 | rosiglitazone 0.001 | [6] 0 | [7] 0.007 | saracatinib 0.029 | sotrastaurin -0.051 | alvocidib 0.028 | Tubastatin A 0.014 | [8] 0.049 | defactinib 0.008 | rucaparib -0.008 | [9] -0.037 | encorafenib 0.025 | [10] 0.007

MRPL14 (UniProt Q6P1L8)
inactive: [1] 0.157 | volasertib -0.026 | [2] 0.024 | epoxomicin -0.054 | [3] 0.079 | [4] -0.089 | [5] 0.077 | rosiglitazone -0.011 | [6] -0.043 | [7] 0.083 | saracatinib 0.022 | sotrastaurin 0.029 | alvocidib 0.001 | Tubastatin A -0.045 | [8] -0.01 | defactinib -0.009 | rucaparib 0.033 | [9] 0.062 | encorafenib -0.022 | [10] -0.046

MPV17L2 (UniProt Q567V2)
inactive: [1] 0.083 | volasertib 0.118 | [2] -0.008 | epoxomicin 0 | [3] 0.073 | [4] 0.04 | [5] 0.032 | rosiglitazone -0.036 | [6] -0.053 | [7] 0.056 | saracatinib 0.024 | sotrastaurin 0.209 | alvocidib 0.097 | Tubastatin A 0.022 | [8] -0.009 | defactinib -0.033 | rucaparib -0.001 | [9] -0.02 | encorafenib 0.012 | [10] -0.003

MRPL20 (UniProt Q9BYC9)
inactive: [1] 0.059 | volasertib 0.112 | [2] 0.005 | epoxomicin -0.058 | [3] 0.02 | [4] -0.024 | [5] -0.029 | rosiglitazone -0.06 | [6] 0.202 | [7] 0.204 | saracatinib -0.051 | sotrastaurin -0.06 | alvocidib 0.009 | Tubastatin A -0.016 | [8] 0.045 | defactinib 0.118 | rucaparib 0.158 | [9] 0.19 | encorafenib 0.045 | [10] -0.098

MICOS13 (UniProt Q5XKP0)
active: [7] -0.579
inactive: [1] -0.132 | volasertib -0.181 | [2] 0.025 | epoxomicin 0.023 | [4] -0.043 | [5] 0.026 | [6] -0.044 | saracatinib 0.039 | sotrastaurin 0.01 | Tubastatin A 0 | [8] 0.005 | defactinib -0.07 | rucaparib -0.041 | [9] -0.017 | encorafenib -0.028 | [10] -0.005

MNAT1 (UniProt P51948)
inactive: [1] 0.029 | volasertib -0.027 | [2] -0.029 | epoxomicin -0.057 | [4] 0.015 | [5] 0.032 | [6] -0.011 | [7] 0.015 | saracatinib -0.017 | sotrastaurin 0 | Tubastatin A 0.006 | [8] 0.012 | defactinib -0.03 | rucaparib -0.046 | [9] -0.004 | encorafenib -0.006 | [10] -0.009
